# According to the supplement of paper PMC10735217:
# Where a name gives a salt, the structure may show the parent alone. The list shows a part of the results. Repeats in this data set agree poorly, so a single value says little.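 In a drug-repurposing library screen, luminescence reads luciferase driven by eight TEAD-binding elements, stably integrated into human kidney-derived cells. Compounds scoring over five robust Z scores above the plate mean are called hits.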
# System: HEK293A TEAD-LUC reporter
# Assay: TEAD-luciferase reporter activity (YAP activation), robust Z score vs plate; higher = stronger YAP/TEAD activation
# Details: 24 h
Compound,TEAD-luciferase reporter activity (compound concentration: 200 nM),TEAD-luciferase reporter activity (compound concentration: 2 uM),TEAD-luciferase reporter activity (compound concentration: 10 uM)
O=P(O)(O)C(NC1CCCCCC1)P(=O)(O)O [incadronate disodium],inactive: -0.581,inactive: -0.557,inactive: 0.281
Cc1ccc(S(=O)(=O)CC(CC#Cc2ccc(Cl)cc2)C(=O)O)cc1 (centres undefined),inactive: -0.758,inactive: -0.828,inactive: -0.459
COCCOc1ccc(OCC(O)CNCCOc2ccc(C(N)=O)c(O)c2)cc1 (centres undefined),inactive: -0.567,inactive: -0.973,inactive: -0.67
"CCCCOc1c(OCCCC)c(=O)c1=O [squaric acid dibutyl ester, Squarex]",–,inactive: -0.261,–
CCCCOc1c(OCCCC)c(=O)c1=O,inactive: 4.44,–,inactive: 0.481
Cc1ccc(CCC(=O)N[C@H](CO)Cc2ccc(O)cc2)cc1,inactive: -0.416,inactive: 2.38,inactive: -0.041
CCN(CC)CC(C)(C)COC(=O)C(CO)c1ccccc1 (centres undefined),inactive: -0.867,inactive: 0.406,inactive: -0.736
N[C@@]1(C(=O)O)CC[C@H]2[C@H](C(=O)O)[C@H]21 [Eglumetad hydrate],inactive: -0.922,inactive: -0.939,inactive: 0.551
COc1cc(CN2CCN(CC(=O)O)CC2)cc(OC)c1OC,inactive: 3.06,inactive: -0.856,inactive: 1.86
CC(C)(N)C(=O)N[C@@H](Cc1c[nH]cn1)C(=O)N[C@H](Cc1ccc2ccccc2c1)C(=O)N[C@H](Cc1ccccc1)C(=O)N[C@@H](CCCCN)C(N)=O [ipamorelin],–,inactive: 0.43,–
CC(C)(N)C(=O)N[C@@H](Cc1c[nH]cn1)C(=O)N[C@H](Cc1ccc2ccccc2c1)C(=O)N[C@H](Cc1ccccc1)C(=O)N[C@@H](CCCCN)C(N)=O [Ipamorelin],inactive: 0.0662,inactive: -0.438,inactive: 0.337
CCOCCn1nc(C(=O)O)c2nc(N(C)CC)nc(Nc3cc(C)ccn3)c21,inactive: -1.29,inactive: 0.582,inactive: -1.41
CCCNC(=O)c1nnc2c(-c3cc(OC)ccc3OC)cccc2c1N,inactive: 0.665,inactive: -0.91,inactive: 1.16
NC(=O)c1ccccc1NC(=O)CCN1CCN(c2nsc3ccccc23)CC1,inactive: -1.33,inactive: -1.17,inactive: -1.35
Cc1ccc(S(=O)(=O)NC(=O)N2N=CCC2C)cc1 (centres undefined),inactive: -0.84,inactive: -1.4,inactive: 1.26
CCCC/N=C(/NCC)NC(=N)N,inactive: 0.278,inactive: 0.298,inactive: -0.735
COC1=C(OC)C(=O)C(CCCCCCCCCC[P+](c2ccccc2)(c2ccccc2)c2ccccc2)=C(C)C1=O [mitoqui mesylate],inactive: -1.42,–,–
COC1=C(OC)C(=O)C(CCCCCCCCCC[P+](c2ccccc2)(c2ccccc2)c2ccccc2)=C(C)C1=O [mitoqui   mesylate],–,–,inactive: -1.91
COC1=C(OC)C(=O)C(CCCCCCCCCC[P+](c2ccccc2)(c2ccccc2)c2ccccc2)=C(C)C1=O [mitoqui    mesylate],–,inactive: 0.138,–
NC(=O)C1CC2(NC(=O)NC2=O)c2cc(F)ccc2O1 (centres undefined) [Fidarestat],inactive: -0.343,inactive: 1.17,inactive: 1.32

Compound,TEAD-luciferase reporter activity (compound concentration: 200 nM),TEAD-luciferase reporter activity (compound concentration: 2 uM),TEAD-luciferase reporter activity (compound concentration: 10 uM)
CN(C)[C@@H](CCOc1cccc2ccccc12)c1ccccc1 [dapoxetine],inactive: -0.182,inactive: -0.743,inactive: 0.467
c1ccc(OCC2=NNc3ccncc3N2)cc1 [oxifungin],inactive: -2.11,inactive: 0.862,inactive: -0.406
O=C(Nc1ccc(Cl)cc1)Nc1ccc(Cl)c(Cl)c1,inactive: 0.101,inactive: 0.808,inactive: 1.41
CC(C)(C)c1ccc(C2=NC3(O)c4ccccc4CC3S2)cc1 (centres undefined),inactive: -2.23,inactive: -2.53,inactive: -0.0338
CN(C)CCSc1nc2ccccc2cc1-c1ccccc1,inactive: 0.346,inactive: -0.735,inactive: 1.03
CCN1CCCCC12Cc1ccccc1CN(C(=O)C(C)C)C2 (centres undefined),inactive: -2.69,–,inactive: -0.479
O=C(NCCCOc1cccc(CN2CCCCC2)c1)C12C3C4C5C3C1C(Br)(C42)C51OCCO1 (centres undefined) [analog of SWR 104SA],–,inactive: -0.114,–
O=C(NCCCOc1cccc(CN2CCCCC2)c1)C12C3C4C5C3C1C(Br)(C42)C51OCCO1 (centres undefined),inactive: 1.24,–,inactive: 2.75
COCCCOc1cc(C[C@@H](CC(N)[C@@H](O)C[C@H](C(=O)NCC(C)(C)C(N)=O)C(C)C)C(C)C)ccc1OC (some centres undefined),inactive: -1.43,inactive: 0.26,active: 12
CN1CCN(c2c(F)cc3c(=O)c(C(=O)O)cn4c3c2OCN4C)CC1 [Marbofloxacin],inactive: -1.66,inactive: -0.0957,inactive: 0.665
COc1ccc(NC(=N)Nc2ccc3c4c(cccc24)CC3)c2ccccc12,inactive: -0.547,inactive: 1.12,inactive: 1.18
CNCCc1nc2ccccc2n1CCOC,inactive: 0.289,inactive: -1.37,inactive: -1.12
CS(=O)(=O)c1ccc(C2=C(c3ccc(F)cc3)CC3(CC3)C2)cc1,inactive: -2.81,inactive: 0.844,inactive: 0.639
CC(C)C[C@@H]1NC(=O)[C@H](Cc2ccccc2)NC(=O)[C@H](Cc2ccc(O)cc2)NC(=O)CCSSC[C@@H](C(=O)N2CCC[C@H]2C(=O)N[C@@H](CCCCN)C(=O)NCC(N)=O)NC(=O)[C@H](CC(N)=O)NC1=O,inactive: -0.834,inactive: -1.14,inactive: 0.489
CNC1CCc2ncsc2C1 (centres undefined),inactive: 1.17,inactive: -1.73,inactive: -0.369
C=CCC(N)c1ccccc1-c1noc2ccccc12 (centres undefined),inactive: 0.374,inactive: 0.105,inactive: -0.394
COC(=O)CC1C[C@@H](COc2ccc(-c3ccc(C(=N)NC(=O)OC)cc3)cc2)NC1=O (some centres undefined),inactive: -0.785,inactive: 0.0115,inactive: -1.8
O=C(CCCc1ccccc1)OCC(COC(=O)CCCc1ccccc1)OC(=O)CCCc1ccccc1 [Glycerol phenylbutyrate],inactive: 0.63,inactive: -1.36,inactive: -0.899
NS(=O)(=O)c1cc2c(cc1Cl)NC(C1CC3C=CC1C3)NS2(=O)=O (centres undefined) [Cyclothiazide],inactive: -1.29,inactive: -2.44,inactive: -0.0139
O=C1NC2(CN(Cc3ccccc3)C2)Oc2ccccc21,inactive: -1.35,–,inactive: -0.455

# Quoted at random: 3 records from the list
Compound,TEAD-luciferase reporter activity (compound concentration: 200 nM),TEAD-luciferase reporter activity (compound concentration: 2 uM),TEAD-luciferase reporter activity (compound concentration: 10 uM)
CC(C)(C)c1ccc(C2=NC3(O)c4ccccc4CC3S2)cc1 (centres undefined),inactive: -2.23,inactive: -2.53,inactive: -0.0338
CNC1CCc2ncsc2C1 (centres undefined),inactive: 1.17,inactive: -1.73,inactive: -0.369
CCN(CC)CC(C)(C)COC(=O)C(CO)c1ccccc1 (centres undefined),inactive: -0.867,inactive: 0.406,inactive: -0.736

# Next part.

Compound,TEAD-luciferase reporter activity (compound concentration: 200 nM),TEAD-luciferase reporter activity (compound concentration: 2 uM),TEAD-luciferase reporter activity (compound concentration: 10 uM)
Cc1cccc(C)c1OCC(C)N [(S)-mexiletine],–,inactive: -1.75,–
Cc1cccc(C)c1OCC(C)N (centres undefined),inactive: -2.75,–,inactive: -0.883
CC1CCCC(C)N1CCCCNC(=O)C(Oc1ccccc1)c1ccccc1 (centres undefined),inactive: -0.744,inactive: -0.484,inactive: -0.337
C[S+](C)[O-] [Place Holder for Patent Registration],inactive: -0.855,–,inactive: 0.406
CC(C)c1cc(CNc2nc(Nc3cc(C4CC4)[nH]n3)cc(N3CCN(C)CC3)n2)on1,inactive: 0.391,inactive: -1.63,inactive: -2.39
O=C(Nc1cc(C(F)(F)F)ccc1C(F)(F)F)c1cc(Br)cc(Br)c1O [analog of IMD-0560],inactive: -0.739,inactive: -2.34,inactive: -1.35
N=C(N)NCCCCCC(=O)O,inactive: 2.6,inactive: -1.32,inactive: 0.403
O=C(Cn1c(Cl)cnc(NCC(F)(F)c2ccccn2)c1=O)NCc1ncccc1F,inactive: 1.42,inactive: -1.05,inactive: -0.657
CO/N=C(\C(=O)N[C@@H]1C(=O)N2C(C(=O)[O-])=C(C[n+]3ccc(-c4cnco4)cc3)CS[C@H]12)c1csc(N)n1,inactive: -1.51,inactive: 1.44,inactive: -0.105
Nc1ccc(C(=O)N2C[C@@H]3C[C@@H](CN(Cc4ccccc4)C3)C2)cc1,inactive: 1.51,inactive: -0.943,inactive: -0.218
COc1ccc(CN(CCN(C)C)c2nccs2)cc1,inactive: -1.06,inactive: -1.61,inactive: -1.02
C=C1C(=O)OC2CC3(C)CCCC(C)C3=CC12 (centres undefined),inactive: 1.02,inactive: -0.992,inactive: -0.25
COc1ccc(OCc2ccc(COc3c(Cl)cccc3Cl)cc2)c(Cl)c1 [pocapavir],inactive: -1.06,inactive: -2.06,inactive: -0.235
Cc1cccc(COC(=O)N(C)C)c1,inactive: 0.974,inactive: -1.86,inactive: -1.71
CCc1c(C(=O)N[C@H]2CC[C@H](CO)CC2)cnn1-c1ccc(C)cc1,inactive: 1.63,inactive: -1.58,inactive: 2.5
CC(C)(C)OC(=O)N1CCC(C(=O)O)CC1,inactive: -0.612,inactive: -1.55,inactive: -1.39
Cc1ccc(NC(=O)NCc2ccc3c(c2)CN(C2CCC(=O)NC2=O)C3=O)cc1Cl (centres undefined),inactive: -1.75,inactive: -0.98,inactive: -2.1
CC(C)(C)n1nnc2c3c(ccc21)C1=CC(=O)CC[C@@]1(CCOc1ccccc1)C3,inactive: -2.34,inactive: 0.765,inactive: -0.994
